Assay results from patent US20230023616A1, “TISSUE REGENERATIVE MULTI-DRUG COCKTAIL AND APPARATUS FOR DELIVERY THEREOF” (Trustees of Tufts College, priority 2019, published 2023).
At least one compound was matched to its structure with a doubt left.

Assay: In vitro cumulative release of drugs from silk hydrogel
Assay type: physicochemical
Settings: silk hydrogel in DPBS, 37° C., by 25 min

CC1=C(/C=C/C(C)=C/C=C/C(C)=C/C(=O)O)C(C)(C)CCC1 [retinoic acid]
Cumulative release: all of the drug
